Measured data: PubChem BioAssay AID1259327 (Drosophila RNAi Screening Center, 2017)
The deposit covers about 3,100 reagents; shown is a part drawn at random. In the full data, 378 (12%) got an active call. 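Hits include both directions; z-score sign shows ATP rise or fall; raw luminescence values are not plate-normalised.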 Entries without a mark were called inactive. Reagents against one gene are numbered here. Names joined by + are all predicted targets of the reagent. The record does not give: the amount of reagent.

- Purpose: 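Baseline ATP after transmembrane-protein gene knock-down with water vehicle only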
- Cell system: Drosophila S2R+ cells
- Knock-down reagent: long dsRNA against Drosophila genes
- Timing: 5 days (water added on day 4, read one day later)
- Conditions: water added as vehicle, no metal, one day before read-out
- Measured: 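Total ATP measured by luciferase light, scaled to plate mean, duplicates averaged, then z-scored across plates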
- Scale: ATP z-score: higher = more total ATP than typical wells; ATP luminescence: higher = more total ATP
- Hit rule: 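a hit is any knock-down whose absolute ATP z-score is greater than 1.5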
- Meaning of the calls: active = hit: ATP up or down; inactive = no clear ATP change

{"gene":"Gr93a","reagent no.":1,"ATP z-score, duplicate mean":-0.285,"ATP luminescence, replicate 1 (RLU)":2.73e5,"ATP luminescence, replicate 2 (RLU)":7.66e5}
{"gene":"Gr93a","reagent no.":2,"ATP z-score, duplicate mean":1.44,"ATP luminescence, replicate 1 (RLU)":5.54e5,"ATP luminescence, replicate 2 (RLU)":5.73e5}
{"gene":"Spase22-23","reagent no.":1,"ATP z-score, duplicate mean":-0.552,"ATP luminescence, replicate 1 (RLU)":7.00e5,"ATP luminescence, replicate 2 (RLU)":6.64e5}
{"gene":"Dop2R","reagent no.":1,"ATP z-score, duplicate mean":"1.6 (active)","ATP luminescence, replicate 1 (RLU)":8.43e5,"ATP luminescence, replicate 2 (RLU)":9.95e5}
{"gene":"Dop2R","reagent no.":2,"ATP z-score, duplicate mean":-0.0392,"ATP luminescence, replicate 1 (RLU)":8.02e5,"ATP luminescence, replicate 2 (RLU)":8.32e5}
{"gene":"5-HT7","reagent no.":1,"ATP z-score, duplicate mean":0.794,"ATP luminescence, replicate 1 (RLU)":7.80e5,"ATP luminescence, replicate 2 (RLU)":7.95e5}
{"gene":"5-HT7","reagent no.":2,"ATP z-score, duplicate mean":0.791,"ATP luminescence, replicate 1 (RLU)":9.33e5,"ATP luminescence, replicate 2 (RLU)":9.64e5}
{"gene":"CG31741","reagent no.":1,"ATP z-score, duplicate mean":-0.153,"ATP luminescence, replicate 1 (RLU)":7.46e5,"ATP luminescence, replicate 2 (RLU)":6.74e5}
{"gene":"stol","reagent no.":1,"ATP z-score, duplicate mean":-0.2,"ATP luminescence, replicate 1 (RLU)":6.96e5,"ATP luminescence, replicate 2 (RLU)":7.14e5}
{"gene":"stol","reagent no.":2,"ATP z-score, duplicate mean":-1.3,"ATP luminescence, replicate 1 (RLU)":3.72e5,"ATP luminescence, replicate 2 (RLU)":4.04e5}
{"gene":"amrt","reagent no.":1,"ATP z-score, duplicate mean":-1.09,"ATP luminescence, replicate 1 (RLU)":5.58e5,"ATP luminescence, replicate 2 (RLU)":6.63e5}
{"gene":"amrt","reagent no.":2,"ATP z-score, duplicate mean":"-1.63 (active)","ATP luminescence, replicate 1 (RLU)":7.98e5,"ATP luminescence, replicate 2 (RLU)":9.17e5}
{"gene":"Ir93a","reagent no.":1,"ATP z-score, duplicate mean":1.05,"ATP luminescence, replicate 1 (RLU)":7.88e5,"ATP luminescence, replicate 2 (RLU)":8.38e5}
{"gene":"Ir93a","reagent no.":2,"ATP z-score, duplicate mean":0.0645,"ATP luminescence, replicate 1 (RLU)":9.83e5,"ATP luminescence, replicate 2 (RLU)":1.03e6}
{"gene":"Nrk","reagent no.":1,"ATP z-score, duplicate mean":0.837,"ATP luminescence, replicate 1 (RLU)":6.87e5,"ATP luminescence, replicate 2 (RLU)":7.04e5}
{"gene":"Nrk","reagent no.":2,"ATP z-score, duplicate mean":-0.574,"ATP luminescence, replicate 1 (RLU)":5.60e5,"ATP luminescence, replicate 2 (RLU)":5.02e5}
{"gene":"Nrk","reagent no.":3,"ATP z-score, duplicate mean":0.317,"ATP luminescence, replicate 1 (RLU)":6.77e5,"ATP luminescence, replicate 2 (RLU)":5.35e5}
{"gene":"salt","reagent no.":1,"ATP z-score, duplicate mean":0.0387,"ATP luminescence, replicate 1 (RLU)":8.84e5,"ATP luminescence, replicate 2 (RLU)":7.76e5}
{"gene":"Oatp33Ea","reagent no.":1,"ATP z-score, duplicate mean":0.00761,"ATP luminescence, replicate 1 (RLU)":3.83e5,"ATP luminescence, replicate 2 (RLU)":5.83e5}
{"gene":"Oatp33Ea","reagent no.":2,"ATP z-score, duplicate mean":-0.347,"ATP luminescence, replicate 1 (RLU)":6.94e5,"ATP luminescence, replicate 2 (RLU)":7.70e5}

An excerpt from above, limited to “ATP z-score, duplicate mean”.
stol #2: -1.3
amrt #1: -1.09

Further reagents follow:
{"gene":"stet","reagent no.":1,"ATP z-score, duplicate mean":-0.659,"ATP luminescence, replicate 1 (RLU)":5.28e5,"ATP luminescence, replicate 2 (RLU)":5.92e5}
{"gene":"stet","reagent no.":2,"ATP z-score, duplicate mean":-0.895,"ATP luminescence, replicate 1 (RLU)":6.14e5,"ATP luminescence, replicate 2 (RLU)":6.78e5}
{"gene":"CG1801","reagent no.":1,"ATP z-score, duplicate mean":0.164,"ATP luminescence, replicate 1 (RLU)":7.35e5,"ATP luminescence, replicate 2 (RLU)":7.88e5}
{"gene":"Indy-2 + CG33934","reagent no.":1,"ATP z-score, duplicate mean":-0.852,"ATP luminescence, replicate 1 (RLU)":6.58e5,"ATP luminescence, replicate 2 (RLU)":7.03e5}
{"gene":"Indy-2 + CG33934","reagent no.":2,"ATP z-score, duplicate mean":-0.612,"ATP luminescence, replicate 1 (RLU)":2.69e5,"ATP luminescence, replicate 2 (RLU)":2.77e5}
{"gene":"CG42288","reagent no.":1,"ATP z-score, duplicate mean":0.701,"ATP luminescence, replicate 1 (RLU)":7.99e5,"ATP luminescence, replicate 2 (RLU)":5.67e5}
{"gene":"CG5250","reagent no.":1,"ATP z-score, duplicate mean":-0.846,"ATP luminescence, replicate 1 (RLU)":2.52e5,"ATP luminescence, replicate 2 (RLU)":6.94e5}
{"gene":"CG5250","reagent no.":2,"ATP z-score, duplicate mean":"-1.68 (active)","ATP luminescence, replicate 1 (RLU)":3.67e5,"ATP luminescence, replicate 2 (RLU)":3.56e5}
{"gene":"ItgaPS4","reagent no.":1,"ATP z-score, duplicate mean":-0.632,"ATP luminescence, replicate 1 (RLU)":5.13e5,"ATP luminescence, replicate 2 (RLU)":6.12e5}
{"gene":"robo2","reagent no.":1,"ATP z-score, duplicate mean":-0.116,"ATP luminescence, replicate 1 (RLU)":7.07e5,"ATP luminescence, replicate 2 (RLU)":6.81e5}
{"gene":"robo2","reagent no.":2,"ATP z-score, duplicate mean":0.918,"ATP luminescence, replicate 1 (RLU)":7.72e5,"ATP luminescence, replicate 2 (RLU)":6.33e5}
